PubChem BioAssay AID720505 – Drosophila RNAi Screening Center, 2013
Purpose: 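Genes needed for store-operated calcium entry in fly cells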 (primary screen). System: Drosophila S2R+ cells. Reagent: long dsRNA against Drosophila genes. Challenge: thapsigargin (2 µM) in calcium-free buffer to empty internal stores, then 2 mM calcium added back. Read-out: 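Stores emptied by 2 µM thapsigargin without calcium, then 2 mM calcium re-added; fluo-4 fluorescence followed by FLIPR in 384-well plates, per-well averaged endpoint, raw; two screen passes, some wells retested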. Reading the numbers: calcium signal and retest calcium signal: higher = more calcium entry after store depletion. Hit rule: 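About 1500 genes called as lowering calcium entry, by varying amounts, judged against per-plate control wells with STIM1 as positive and Rho1 as negative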. Meaning of the calls: active = called as lowering calcium entry; inactive = not called.
The screen tested about 20,000 reagents; this is a random part of those with a known target gene and a result. Over the whole deposit, about 2,100 (10%) were called active. 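Raw plate signals without normalisation; calls rest on control-based scores that were not deposited; replicate 2 separates called from uncalled poorly.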 Reagents against one gene are numbered here. A plus sign joins genes that one reagent is predicted to hit. Not stated in the record: the amount of reagent, the time to read-out.

predicted target	dsRNA no.	calcium signal, replicate 1	calcium signal, replicate 2	retest calcium signal, replicate 1	retest calcium signal, replicate 2	Outcome
CG10907	1	77	84.6			inactive
S2P (site-2 protease)	1	99.2	165			inactive
asRNA:CR31845 (antisense RNA:CR31845)	1	129	140			inactive
asRNA:CR31845 (antisense RNA:CR31845)	2	65.7	93.2			inactive
ppk16 (pickpocket 16)	1	193	161			inactive
Rok (Rho kinase)	1	115	91.2			inactive
Rok (Rho kinase)	2	98.7	155			inactive
CheB93a (Chemosensory protein B 93a)	1	179	84.6			inactive
CG34370	1	151	7425			inactive
CG34370	2	161	87.5			inactive
CG34370	3	183	104			inactive
CG34370	4	175	114			inactive
HnRNP-K (Heterogeneous nuclear ribonucleoprotein K)	1	102	93.2	107	128	inactive
HnRNP-K (Heterogeneous nuclear ribonucleoprotein K)	2	122	206			inactive
Shawl (Shaw-like)	1	168	175			inactive
Shawl (Shaw-like)	2	159	120			inactive
Ttc1 (Tetratricopeptide repeat domain 1)	1	109	141			inactive
Ttc1 (Tetratricopeptide repeat domain 1)	2	141	200			inactive
CG6321	1	57.2	94.7			active
Cyp4aa1 (Cytochrome P450 4aa1)	1	101	94			inactive
CCDC53 (Coiled-coil domain containing 53)	1	118	141			inactive
RpS12 (Ribosomal protein S12)	1	56.7	61.6			active
CG43234 (retired record)	1	111	7158			inactive
CG31365	1	150	249			inactive
Tbcc (Tubulin-binding cofactor C)	1	129	122			inactive
Agpat3 (1-Acylglycerol-3-phosphate O-acyltransferase 3)	1	125	91			inactive
Liprin-gamma	1	168	158			inactive
Miga (Mitoguardin)	1	214	135			inactive
CG13516	1	97.7	140			inactive
CR42532 (pseudo)	1	125	147			inactive
Bx42	1	120	92.3			inactive

Entries listed so far marked active:
predicted target	dsRNA no.	calcium signal, replicate 1	calcium signal, replicate 2	retest calcium signal, replicate 1	retest calcium signal, replicate 2	Outcome
CG6321	1	57.2	94.7			active
RpS12 (Ribosomal protein S12)	1	56.7	61.6			active

The results go on:
predicted target	dsRNA no.	calcium signal, replicate 1	calcium signal, replicate 2	retest calcium signal, replicate 1	retest calcium signal, replicate 2	Outcome
Gss1 + Gss2	1	84.8	125			inactive
Gss1 + Gss2	2	270	84.4			inactive
CG13102 + Rcd-1r	1	150	127			inactive
CG1806	1	159	82.3			inactive
CG42579	1	91.2	145			inactive
CG17140 + CG17139	1	126	166			inactive
CG17140 + CG17139	2	135	163			inactive
CG45002	1	93.5	148			inactive
CG33758	1	128	88.9			inactive
CG14969	1	91.7	93			inactive
CG18428	1	187	202			inactive
CG1603	1	69.3	206			active
Rbp1-like	1	144	101			inactive
Rbp1-like	2	107	272			inactive
Rbp1-like	3	92.3	269			inactive
GstE14 (Glutathione S transferase E14)	1	110	156			inactive
LManVI (Lysosomal alpha-mannosidase VI)	1	61.4	86.8			active
arx (asterix)	1	134	83.9			inactive
mRRF2 (mitochondrial ribosome recycling factor 2)	1	77.4	90.1			inactive
CG30271	1	117	134			inactive
Pex19 (Peroxin 19)	1	98.3	95.4			inactive
Gabat (gamma-aminobutyric acid transaminase)	1	81.9	111			inactive
Mst84Db (Male-specific RNA 84Db)	1	106	148			inactive
Mst84Db (Male-specific RNA 84Db)	2	82.8	87.7			inactive
Rpp21 (Ribonuclease P/MRP subunit p21)	1	102	251			inactive
